This is one part of the list. These are further read-outs of the screen, such as a control signal, another cell line or another target. No call is given for them. Compounds called inactive in the main read-out are mostly missing here. Potencies come from curve fits of mixed quality, noted in brackets.
Test: qHTS Assay to Find Inhibitors of Chronic Active B-Cell Receptor Signaling
Settings: ABC-DLBCL IkBa-CBG/CBR reporter, luminescence ratio (green luciferase fused to IkBa over red control in TMD8 lymphoma cells), 4 h
How it was run: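 TMD8 ABC-DLBCL cells carrying doxycycline-inducible green luciferase fused to IkappaBalpha plus unfused red luciferase were exposed to compounds (up to 46 uM) for 4 hrs at 37C. Activity came from the overlap-corrected green/red luminescence ratio.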

[1] = measured here: CBR red luminescence, cell number
[2] = measured here: IkBa-CBG green luminescence

SMILES | AC50 [1] | AC50 [2]
Cc1ccc(NC(=O)c2cc(S(=O)(=O)N3CCC4(CC3)OCCO4)ccc2F)cc1Cl | 6.31 µM [falling, full curve, poor fit] | 
CCOc1cccc(C(=O)Nc2ccc(-c3nc4ncccc4o3)cc2C)c1 | 2.51 µM [rising, partial curve, poor fit] | 
O=C(CCNc1ccc(F)cc1)c1cc2ccccc2o1 | 5.62 µM [falling, partial curve] | 
O=[N+]([O-])c1ccc(CSc2ncnc3c2ncn3[C@@H]2O[C@H](CO)[C@@H](O)[C@H]2O)cc1 | 18.4 µM [rising, single point] | 
O=C(Nc1ccc(C(=O)O)cc1)/C(=C\c1ccc([N+](=O)[O-])cc1)NC(=O)c1ccc(Br)cc1 | 35.5 µM [falling, single point] | 
NC(=O)CSc1nnc(NC(=O)c2ccc3ccccc3c2)s1 | 1.84 µM [falling, full curve] | 
COc1ccccc1/C=C/C(=O)c1c2c(c(C)[nH]c1=O)CCCC2 | 0.631 µM [falling, full curve, poor fit] | 
CN(C)c1cccc(C(=O)OCC(=O)Nc2ccccc2Sc2ccccc2)c1 | 20.6 µM [falling, single point] | 
CC(=O)c1cc(C(c2csc(C(C)=O)c2)c2csc(C(C)=O)c2)cs1 | 20.6 µM [rising, single point] | 
Cc1cc(C)c2c(N)c(C(=O)Nc3ccc(F)cc3)sc2n1 | 11.2 µM [falling, partial curve] | 
CCN(CC)S(=O)(=O)c1cccc(C(=O)Nc2ccccc2C(=O)Nc2ccc(Cl)cc2)c1 | 31.6 µM [rising, single point] | 
O=C(C1CC(=O)N(c2ccc(Br)cc2)C1)N1CCCC1 (stereo unspecified) | 3.55 µM [rising, partial curve, poor fit] | 
COc1ccc(C(=O)NN(C)c2nc(C(F)(F)F)nc3ccccc23)cc1 | 0.251 µM [rising, full curve, poor fit] | 0.316 µM [falling, full curve, poor fit]
CCCCC(=O)Nc1nnc(S(=O)(=O)N(CC)c2ccc(OC)cc2)s1 | 35.5 µM [falling, single point] | 
O=C(O)c1ccc(NC(=S)NC(=O)c2ccc(-c3ccc(Br)cc3)o2)cc1 | 0.316 µM [falling, full curve, poor fit] | 
COC(=O)[C@@]1(C)[C@H]2C(=O)N(Cc3ccccc3)C(=O)[C@H]2[C@H]2CN=C(SCC3CC3)N21 | 29.1 µM [rising, partial curve, poor fit] | 
O=C(c1ccc(F)cc1)N(Cc1cccs1)C1CCS(=O)(=O)C1 (stereo unspecified) | 20 µM [rising, single point] | 
O=C1CC(NC23CC4CC(CC(C4)C2)C3)C(=O)N1c1ccc2c(c1)OCO2 (stereo unspecified) | 20.6 µM [rising, partial curve, poor fit] | 
COc1cc(C2C(C#N)=C(N)Oc3cc4c(cc32)OCO4)cc(OC)c1OC (stereo unspecified) | 0.398 µM [rising, full curve, poor fit] | 0.631 µM [falling, full curve]

Among those listed so far, these have a nitro group on carbon:
SMILES | AC50 [1] | AC50 [2]
O=[N+]([O-])c1ccc(CSc2ncnc3c2ncn3[C@@H]2O[C@H](CO)[C@@H](O)[C@H]2O)cc1 | 18.4 µM [rising, single point] | 
O=C(Nc1ccc(C(=O)O)cc1)/C(=C\c1ccc([N+](=O)[O-])cc1)NC(=O)c1ccc(Br)cc1 | 35.5 µM [falling, single point] | 

Later entries.

SMILES | AC50 [1] | AC50 [2]
CCOc1ccc(C(c2c(NC(=O)c3ccccc3)sc(C)c2C)N2CCN(C)CC2)cc1 (stereo unspecified) | 29.1 µM [falling, single point] | 
Cn1c(CN2CCCCC2)nc2cc(NC(=O)c3cccs3)ccc21 | 20.6 µM [falling, partial curve, poor fit] | 
Cc1cccc(NC(=O)CSc2nccn2Cc2ccco2)c1 | 1.26 µM [falling, partial curve, poor fit] | 
COc1ccc(CN(C)C(=O)CNC(=O)c2ccc(C)cc2)cc1 | 35.5 µM [falling, partial curve, poor fit] | 
CCOc1ccc(C(=O)NCC2(c3ccccc3)CCOCC2)cc1 | 31.6 µM [rising, single point] | 
O=C(c1ccc2c(c1)N(Cc1cccc(Cl)c1)C(=O)c1ccccc1S2(=O)=O)N1CCCC1 | 12.6 µM [rising, single point] | 
CCOc1ccc2nc(NC(=O)CSc3nc4ccccc4c(=O)n3Cc3ccco3)sc2c1 | 0.411 µM [falling, partial curve, poor fit] | 
COC(=O)c1c(C)[nH]c(O)c1C=Nc1ccc(Oc2ccccc2)cc1 | 17.8 µM [rising, single point] | 
COc1ccc(-c2cc(=O)oc3c(C)c(OC(C)C(=O)Nc4ccc(CN5CCOCC5)cc4)ccc23)cc1 (stereo unspecified) | 20 µM [falling, partial curve, poor fit] | 
CCCOC(=O)COC(=O)c1ccccc1NC(=O)c1ccccc1 | 14.6 µM [falling, single point] | 
COc1cccc(/C=C(\CC(=O)O)c2nc3ccccc3s2)c1 | 20 µM [falling, partial curve] | 
O=C(Nc1nnc(C2CC2)s1)c1cccc(S(=O)(=O)N2CC(c3ccccc3)CC2=O)c1 (stereo unspecified) | 8.91 µM [falling, partial curve] | 
COc1ccccc1-c1noc(-c2ccncc2)n1 | 0.00517 µM [rising, full curve, poor fit] | 
Cc1nc2ccc3nc(NC(=O)C4COc5ccccc5O4)sc3c2s1 (stereo unspecified) | 8.2 µM [falling, partial curve, poor fit] | 
COc1cc(/C=N/NC(=O)c2cc(-c3cccn3C)n[nH]2)cc(OC)c1OC | 7.94 µM [falling, partial curve, poor fit] | 
C=CCNc1oc(-c2cccc(Cl)c2)nc1C#N |  | 29.1 µM [falling, single point]
CCCCCCC(=O)N/N=C/c1ccc(Br)cc1 | 18.4 µM [rising, single point] | 
COc1ccccc1NS(=O)(=O)c1cccc(C(=O)N/N=C/c2cn(-c3ccccc3)nc2-c2ccccc2)c1 | 6.51 µM [rising, partial curve, poor fit] | 23.1 µM [falling, partial curve, poor fit]
COc1ccc(C(=O)Nc2cccc(NC(C)=O)c2)cc1OC | 18.4 µM [falling, partial curve, poor fit] | 

Source: PubChem BioAssay AID493014 (National Center for Advancing Translational Sciences (NCATS), 2011)
